Here are results for 1 sequence from PMC12376526.

Chains of the proteins cited; added tags and fusions are not shown. Lines headed by an entry give the natural chain unless they say otherwise; changes in a name come on top.
UniProt E5RQA1: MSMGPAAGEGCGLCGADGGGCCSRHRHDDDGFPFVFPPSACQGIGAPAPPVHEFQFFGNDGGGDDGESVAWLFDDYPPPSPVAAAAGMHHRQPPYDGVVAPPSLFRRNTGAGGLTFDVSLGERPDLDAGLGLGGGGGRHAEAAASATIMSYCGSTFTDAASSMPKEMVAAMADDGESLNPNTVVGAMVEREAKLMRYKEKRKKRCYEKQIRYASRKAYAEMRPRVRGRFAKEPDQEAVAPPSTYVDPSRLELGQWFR

Construct, isoform or probe ends are uncertain for at least one entry.

Series [1] deals with GST-Ghd7 (Oryza sativa) (UniProt E5RQA1). Briefly: EMSA. The conditions noted are these: increasing OsNAC42 first strengthens, then weakens binding; LightShift Chemiluminescent EMSA kit (Thermo 20148), per manufacturer; pH and temperature not …; recombinant protein; protein details: GST; label: 5' biotin. In general terms: A gel shift assay detects complexes by their altered migration in electrophoresis.

The subject of series [2] is SUMO-NAC42-His (Oryza sativa). Briefly: EMSA. The conditions noted are these: increasing Ghd7 first strengthens, then weakens binding; LightShift Chemiluminescent EMSA kit (Thermo 20148), per manufacturer; pH and temperature not stated; recombinant protein; protein details: SUMO, His; label: 5' biotin.

“CTCCACATCTCTTCTCCATCAAGAATCAATCACTCGCTC (double strand) [OsChalk5 promoter probe]”: the binding result in series [1] and in series [2] was “binds” throughout.
